No constants are given. Whether binding was seen depends on the method and setting. In cells and extracts the contact can be indirect. Binding can be weak; no strength is given. Tags and fused reporters may be left off the sequences shown.
Target: T1, mKG N-terminal fragment fused to mGRHL3 (mouse) (UniProt Q5FWH3)
T1 sequence: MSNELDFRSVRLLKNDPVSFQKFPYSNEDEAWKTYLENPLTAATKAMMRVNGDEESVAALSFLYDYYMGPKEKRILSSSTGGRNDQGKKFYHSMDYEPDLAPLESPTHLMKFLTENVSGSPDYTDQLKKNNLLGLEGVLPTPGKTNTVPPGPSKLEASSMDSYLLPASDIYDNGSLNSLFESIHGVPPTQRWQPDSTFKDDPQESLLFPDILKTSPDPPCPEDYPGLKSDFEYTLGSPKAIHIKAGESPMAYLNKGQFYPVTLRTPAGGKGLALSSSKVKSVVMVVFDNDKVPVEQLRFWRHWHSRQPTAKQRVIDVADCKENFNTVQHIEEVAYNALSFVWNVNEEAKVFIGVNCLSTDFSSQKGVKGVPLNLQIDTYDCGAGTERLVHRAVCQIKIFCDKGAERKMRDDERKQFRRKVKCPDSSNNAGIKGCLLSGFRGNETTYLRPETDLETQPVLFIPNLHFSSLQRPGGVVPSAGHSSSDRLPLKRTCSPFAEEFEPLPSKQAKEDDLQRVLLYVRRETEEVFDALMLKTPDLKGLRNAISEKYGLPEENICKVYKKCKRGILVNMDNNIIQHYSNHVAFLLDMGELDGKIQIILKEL
Assay: split reporter; monomeric Kusabira-Green (mKG) fragment complementation, CoralHue Fluo-chase kit; MCF7 and NIH3T3 cells co-transfected with equal amounts of the two plasmids

Substance: mUSP39 fused to an mKG C-terminal fragment (mouse)
- binding: binds

Source: paper PMC9018712
